Assay results as given in US20080207501A1.
Results are given in words; binding and its absence hold for the method and conditions named. Some results given as binding are weak or reduced against the parent protein; the word gives no strength.

By UniProt entry, the sequences of proteins in these tests, tags left out. Where a name states a change or a piece, a line headed by the entry shows the natural chain unless it says otherwise. Residues count along the entry.
UniProt Q16602: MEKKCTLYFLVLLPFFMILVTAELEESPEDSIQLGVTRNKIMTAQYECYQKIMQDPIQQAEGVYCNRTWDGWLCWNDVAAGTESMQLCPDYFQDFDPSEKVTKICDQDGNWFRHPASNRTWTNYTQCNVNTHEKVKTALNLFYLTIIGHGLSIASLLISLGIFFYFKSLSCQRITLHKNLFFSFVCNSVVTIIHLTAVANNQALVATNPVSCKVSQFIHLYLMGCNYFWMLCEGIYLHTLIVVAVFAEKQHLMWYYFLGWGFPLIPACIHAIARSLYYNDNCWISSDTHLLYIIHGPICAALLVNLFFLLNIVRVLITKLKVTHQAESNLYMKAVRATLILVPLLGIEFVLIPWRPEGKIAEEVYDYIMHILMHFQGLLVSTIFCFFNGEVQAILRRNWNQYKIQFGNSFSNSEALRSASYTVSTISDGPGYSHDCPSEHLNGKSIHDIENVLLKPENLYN
UniProt P12969, residues 38-74: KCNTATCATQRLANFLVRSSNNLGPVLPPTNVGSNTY

Biological target: CGRP receptor (membranes prepared from SK-N-MC cells) (UniProt Q16602)
Experiment: radioligand displacement, 125I-hCGRP, SK-N-MC cell membranes

binding: binds
Substance: rat amylin (from UniProt P12969 38-74) (peptide)
